PubChem BioAssay AID1259254 | NCATS | 2017

Aim: 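Genome-wide screen for genes that prevent DNA re-replication in cancer cells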 (primary screen)
Cell system: human HCT116 colorectal cancer cells
Reagents: single siRNA against human genes
Time to read-out: 3 days
Measurement: 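Nuclei stained with Hoechst and imaged; cell-cycle phase assigned by DNA content; G2 share scaled per plate, non-targeting siRNA 0%, GMNN siRNA 100%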
Reading the numbers: G2 robust z-score and G2 cells, % of GMNN control: higher = more G2 cells, more excess DNA replication; raw share of cells in G2: higher = larger share of cells with G2 DNA content
Hit rule: 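An siRNA counts as active if its G2 robust z-score lies at least 5 MADs above the screen median; here such calls match roughly 38% of GMNN control or more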
This is one part, drawn at random, of about 59,000 reagents tested. Of all reagents, about 1,550 (2.6%) got an active call. 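G2 share is only a proxy for re-replication; each gene was hit by three separate siRNAs, and active genes were retested.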 The raw values are shown without normalisation. Reagents against one gene are numbered here. No sequences are given here. The record does not give: the amount of reagent.

gene	reagent	G2 robust z-score	G2 cells, % of GMNN control	raw share of cells in G2 (%)	call
ZSCAN1	1	-0.748	-2.29	2.8	inactive
ZSCAN1	2	-0.936	-3.62	1.64	inactive
ZSCAN1	3	-0.572	-1.06	2.95	inactive
TMED9	1	0.0572	3.37	4.81	inactive
TMED9	2	-0.398	0.165	4.34	inactive
TMED9	3	0.554	6.87	5.46	inactive
RAB8A	1	1.31	12.2	10.3	inactive
RAB8A	2	-0.842	-2.96	4.22	inactive
RAB8A	3	-1.05	-4.43	1.73	inactive
ICAM5	1	10.3	75.5	32.8	active
ICAM5	2	-1.14	-5.08	3.06	inactive
ICAM5	3	3.47	27.4	15.1	inactive
GRK4	1	-0.791	-2.6	4.75	inactive
GRK4	2	-0.743	-2.26	4.65	inactive
GRK4	3	0.787	8.51	7.02	inactive
ZNF430	1	-0.673	-1.77	2.17	inactive
ZNF430	2	0.275	4.91	8.13	inactive
ZNF430	3	0.517	6.6	5.71	inactive
TSPAN10	1	-1.09	-4.73	2.06	inactive
TSPAN10	2	-0.447	-0.174	2.35	inactive
TSPAN10	3	2.49	20.5	10.9	inactive
AP5Z1	1	0.165	4.13	7.2	inactive
AP5Z1	2	2.55	20.9	12.7	inactive
AP5Z1	3	0.314	5.18	5.29	inactive
SLC5A1	1	1.11	10.8	9.3	inactive
SLC5A1	2	0.0834	3.55	5.77	inactive
SLC5A1	3	1.97	16.8	9.53	inactive

Continued (3 carried over from the part before).
gene	reagent	G2 robust z-score	G2 cells, % of GMNN control	raw share of cells in G2 (%)	call
SLC5A1	1	1.11	10.8	9.3	inactive
SLC5A1	2	0.0834	3.55	5.77	inactive
SLC5A1	3	1.97	16.8	9.53	inactive
TRIP12	1	-0.247	1.23	5.69	inactive
TRIP12	2	3.33	26.4	14.2	inactive
TRIP12	3	-0.365	0.399	4.72	inactive
MMP23B	1	6.03	45.4	21.4	active
MMP23B	2	-1.22	-5.62	2.92	inactive
MMP23B	3	-0.851	-3.02	2.78	inactive
CFAP97D1	1	3.45	27.2	13.6	inactive
CFAP97D1	2	0.337	5.34	5.11	inactive
CFAP97D1	3	-0.964	-3.82	2.11	inactive
C1QTNF3	1	-0.271	1.06	4.52	inactive
C1QTNF3	2	-0.537	-0.812	3.09	inactive
C1QTNF3	3	-0.553	-0.926	1.55	inactive
ATF4	1	0.209	4.44	6.65	inactive
ATF4	2	-0.151	1.9	4.7	inactive
ATF4	3	0.502	6.5	6.93	inactive
LRRC61	1	0.963	9.74	8.82	inactive
LRRC61	2	0.541	6.78	7.65	inactive
LRRC61	3	1.21	11.5	5.73	inactive
EPN3	1	-0.361	0.426	2.94	inactive
EPN3	2	-0.965	-3.82	4.18	inactive
EPN3	3	-0.446	-0.17	3.58	inactive
CRLF1	1	-0.519	-0.687	5.02	inactive
CRLF1	2	2.03	17.2	12.4	inactive
CRLF1	3	-0.557	-0.949	4.37	inactive
CNGA3	1	-0.544	-0.857	4.98	inactive
CNGA3	2	2.41	19.9	11.5	inactive
CNGA3	3	-0.132	2.04	5.17	inactive
KIF12	1	-0.705	-1.99	4.74	inactive
KIF12	2	0.888	9.21	8.92	inactive
KIF12	3	-0.0164	2.85	5.56	inactive
LAT2	1	-0.496	-0.52	4.9	inactive
LAT2	2	3.59	28.2	15.1	inactive
LAT2	3	0.248	4.71	5.01	inactive
PRAME-AS	1	1.97	16.9	10.7	inactive
PRAME-AS	2	0.0451	3.28	4.39	inactive
PRAME-AS	3	-0.202	1.54	3.24	inactive
UGT2B15	1	-0.224	1.39	6.19	inactive
UGT2B15	2	1.05	10.3	7.88	inactive
UGT2B15	3	6.82	50.9	23.2	active
SDR39U1	1	2.06	17.5	11.2	inactive
SDR39U1	2	0.271	4.87	6.79	inactive
SDR39U1	3	-0.421	0.0088	3.03	inactive
